Data: patent US20250288512A1, “USE OF CELL MEMBRANE-BOUND SIGNALING FACTORS” (AIVITA Biomedical, Inc., priority 2016, published 2025)

Tested on: hESC
Assay: Capture of lipid-modified Wnt/Shh proteins from embryonic stem cell cultures by cyclodextrin solution
Assay type: cell-based, human
Details: 10 mM cyclodextrin, 3 hr exposure
Procedure: Embryonic stem cells were expanded according to current published methods using a serum free media supplemented with bFGF (10 ng/ml) and activin A (5 ng/ml) on an adherent substrate consisting on a thin layer of MATRIGEL®. After confluence, half of the cultures were fed with the same media not including the growth factors bFGF and Activin A. A cell culture supernatant sample was analyzed for follistatin concentration.
Individual cultures, undifferentiated or partial differentiated, were exposed to 10 mM solution of α-cyclodextrin, β-cyclodextrin, γ-cyclodextrin, or methyl-β-cyclodextrin (MBCD) for 60 min to 180 min. The cell cultures before exposure were smooth, compact, and multilayered (FIG. 5A). After incubation with a cyclodextrin, the cultures were disrupted with the majority of cells losing adherence (FIG. 5B).
The MBCD solution incubated with the cells was then analyzed for the concentration of Shh, Wnt 3a, and Wnt7a.

methyl-β-cyclodextrin [methyl-beta-cyclodextrin]
Concentration of Shh in the methyl-beta-cyclodextrin capture solution (Partial differentiated hESC): 570.900 ng/mL | Concentration of Wnt3a in the methyl-beta-cyclodextrin capture solution (Partial differentiated hESC): 7.720 ng/mL | Concentration of Wnt7b in the methyl-beta-cyclodextrin capture solution (Partial differentiated hESC): 24.658 ng/mL | Concentration of Shh in the methyl-beta-cyclodextrin capture solution (Undifferentiated hESC): 0.000 ng/mL | Concentration of Wnt3a in the methyl-beta-cyclodextrin capture solution (Undifferentiated hESC): 7.950 ng/mL | Concentration of Wnt7b in the methyl-beta-cyclodextrin capture solution (Undifferentiated hESC): 27.026 ng/mL
